Results deposited as PubChem BioAssay AID686937 (Drosophila RNAi Screening Center, 2013).

Screen: 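Knock-downs that reduce output of a secreted reporter enzyme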 (primary screen)
System: Drosophila S2 cells expressing secreted horseradish peroxidase
Knock-down reagent: long dsRNA against Drosophila genes
Time to read-out: about 5.5 days (5 days dsRNA, then 12 h reporter induction)
Treatment: reporter expression induced after 5 days of dsRNA, read 12 h later; inducer not stated
Read-out: 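After 5 days of dsRNA and 12 h of reporter induction, medium peroxidase read by chemiluminescence and scored as per-plate z-score; higher values mean more reporter released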
Reading the numbers: z-score: higher = more reporter secreted into medium
The deposit covers about 23,000 reagents; shown is an unselected part of those that have a named target and a result. 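Reduced-secretion tags in replicate 1 do not always agree with the z-scores; no criterion for assigning the tags was given.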 The numbers tell different reagents against one gene apart. Names joined by + are all predicted targets of the reagent. No sequences are given here. The record does not give: the amount of reagent.

Gene | reagent no. | z-score, replicate 1 | z-score, replicate 2 | z-score, replicate 3 | z-score, replicate 4 | phenotype, replicate 1
bys | 1 | 0.1 | 0.1 | – | – | –
Lst8 | 1 | 0.52 | 0.38 | – | – | –
CG33796 | 1 | 0.08 | -0.72 | – | – | –
CG11112 | 1 | 0.16 | 0.12 | – | – | –
CD98hc | 1 | 0.14 | -0.15 | – | – | –
CG14609 | 1 | 0 | 0 | – | – | –
CG12920 | 1 | 0.16 | -0.01 | – | – | –
E23 | 1 | -1.75 | -1.52 | – | – | reduced secretion
E23 | 2 | 0.27 | 0.21 | – | – | –
CG34242 | 1 | -0.16 | 0.18 | 0.26 | -0.95 | –
CG43133 | 1 | 0.43 | 0.29 | – | – | –
CG15237 | 1 | 0.13 | 0.26 | – | – | –
CG5217 | 1 | 0.4 | 0.55 | – | – | –
Sik2 | 1 | 0.33 | 0.43 | – | – | –
DnaJ-1 | 1 | 0.52 | 0.67 | – | – | –
euc | 1 | 0.37 | 0.3 | – | – | –
CG2217 + CG42740 | 1 | 0.28 | 0.4 | – | – | –
Naprt | 1 | 0 | -0.07 | – | – | –
CG7183 | 1 | 0.23 | 0.3 | – | – | –
snsl | 1 | 0.4 | 0.32 | – | – | –
Cyt-c-d | 1 | 0.37 | 0.39 | – | – | –
alpha-Est3 | 1 | 0.21 | 0.29 | – | – | –
msd5 | 1 | 0.21 | 0.3 | – | – | –
CG12477 | 1 | 0.28 | 0.06 | – | – | –
CG11696 | 1 | 0.04 | 0.19 | – | – | –
Or45b | 1 | 0.36 | 0.37 | – | – | –
Past1 | 1 | 0.38 | 0.45 | – | – | –
Grip75 | 1 | 0.16 | 0.07 | – | – | –
Tsen2 | 1 | -0.89 | -0.04 | – | – | –
CG30087 | 1 | -0.16 | -0.34 | – | – | –
Fmo-1 | 1 | 0.07 | 0.32 | – | – | –
Lsd-1 | 1 | 0.3 | 0.36 | – | – | –
Cap-D3 | 1 | 0.44 | 0.25 | – | – | –
CG8197 | 1 | 0.23 | 0.22 | – | – | –
IntS11 | 1 | 0.79 | 0.79 | – | – | –
CG6659 | 1 | 0.04 | 0.31 | – | – | –
Pcp | 1 | 0.13 | 0.17 | – | – | –
CG13627 | 1 | 0.54 | 0.41 | – | – | –
CG1504 | 1 | -0.31 | 0.41 | – | – | –
CG17202 | 1 | -1.71 | 0.26 | – | – | reduced secretion
Spn42Db | 1 | 0.31 | 0.3 | – | – | –
Pglym87 | 1 | 0.44 | 0.54 | – | – | –
CG16898 | 1 | 0.23 | 0.12 | – | – | –
CG6481 | 1 | -0.22 | -0.36 | – | – | –
CG7963 | 1 | 0.09 | 0.78 | – | – | –
PpD5 | 1 | 0.64 | 0.47 | – | – | –
Cpr47Ef | 1 | 0.34 | 0.18 | – | – | –
Cpr47Ef | 2 | -1.47 | 0.02 | – | – | –
CheB42a | 1 | -0.83 | 0.37 | – | – | –
Rab14 | 1 | 0.23 | 0.22 | – | – | –
NANS | 1 | 0.12 | -0.02 | – | – | –
Oat | 1 | 0.45 | 0.38 | – | – | –
mthl7 | 1 | 0.37 | -0.04 | – | – | –
ais | 1 | 0.3 | 0.39 | – | – | –
Mettl2 | 1 | 0.09 | 0.01 | – | – | –
CG43155 | 1 | 0.38 | 0.03 | – | – | –
CG43155 | 2 | 0.04 | 0.26 | – | – | –
BomBc1 | 1 | 0.17 | 0.23 | – | – | –
Inx6 | 1 | 0.45 | 0.46 | – | – | –
tant | 1 | 0.1 | 0.37 | – | – | –
CG8087 | 1 | 0.48 | 0.72 | – | – | –
Tep3 | 1 | -0.05 | 0.31 | – | – | –
Ugt302E1 | 1 | 0.28 | 0.06 | – | – | –
Cpr11A | 1 | -0.02 | -0.07 | – | – | –
fbp | 1 | 0.2 | 0.24 | – | – | –
CG1647 | 1 | 0.19 | 0.21 | – | – | –
Droj2 | 1 | -0.65 | 0.17 | – | – | –
CG1750 | 1 | 0.6 | 0.41 | – | – | –
Nplp3 | 1 | -0.25 | 0.05 | – | – | –
Cp110 | 1 | 0.16 | 0.23 | – | – | –
Cp110 | 2 | -0.49 | -0.11 | – | – | –
eIF2Bgamma | 1 | -0.17 | -1.48 | – | – | –
Hmt-1 | 1 | 0.33 | 0.17 | – | – | –
Atf6 | 1 | 0.52 | 0.34 | -0.05 | – | –
Atf6 | 2 | 0.41 | 0.19 | – | – | –
Yip1d1 | 1 | -1.15 | -1.44 | – | – | –
CG14374 | 1 | 0.36 | 0.62 | – | – | –
CG3819 | 1 | 0.25 | 0.33 | – | – | –
Cox10 | 1 | 0.14 | 0.16 | – | – | –
Mos | 1 | 0.35 | 0.37 | – | – | –
yellow-f | 1 | 0.32 | 0.14 | – | – | –
GILT2 | 1 | 0.32 | 0.25 | – | – | –

Targets above whose gene name begins with E or e:
Gene | reagent no. | z-score, replicate 1 | z-score, replicate 2 | z-score, replicate 3 | z-score, replicate 4 | phenotype, replicate 1
E23 | 1 | -1.75 | -1.52 | – | – | reduced secretion
E23 | 2 | 0.27 | 0.21 | – | – | –
euc | 1 | 0.37 | 0.3 | – | – | –
eIF2Bgamma | 1 | -0.17 | -1.48 | – | – | –
